# Results from article PMC6611789.
# These are yes or no findings as the source states them, for the method shown. In cells and extracts the contact can be indirect. Some entries that bind do so weakly or less than the wild type.
# B1: endogenous TRPC3 (neonatal rat cardiomyocytes) (protein, UniProt Q9JMI9 1-909)
# chain: MSTKVKKCREPARVTLPAPEEEDGEAEGAEPQRRRRGWRGVNGGLEPPCPRAPPSPGPDASSEGSPSRWRTAGMRDKGRRQAVRGPAFMFGARGPSLTAEEERFLDAAEYGNIPVVRKMLEESRTLNVNCVDYMGQNALQLAVGNEHLEVTELLLKKENLARIGDALLLAISKGYVRIVEAILGHPGFAASRRLTLSPCEQELRDDDFYAYDEDGTRFSPDITPIILAAHCHKYEVVHLLLLKGARIERPHDYFCRCADCAEKQRLDAFSHSRSRINAYKGLASPAYLSLSSEDPVLTALELSNELAKLANIEKEFKNDYRKLSMQCKDFVVGVLDLCRDSEEVEAILNGDLESVEPLERHGHKASLSRVKLAIKYEVKKFVAHPNCQQQLLTIWYENLSGLREQTIAIKCLVVLVVALGLPFLAIGYWIAPCSRLGKILRSPFMKFVAHAASFIIFLGLLVFNASDRFEGITTLPNITVIDYPKQIFRVKTTQFTWTEMLIMVWVLGMMWSECKELWLEGPREYIVQLWNVLDFGMLSIFIAAFTARFLAFLQATKAQQYVDSHVQESDLSEVTLPPEVQYFTYARDKWLPSDPQIISEGLYAIAVVLSFSRIAYILPANESFGPLQISLGRTVKDIFKFMVLFIMVFLAFMIGMFILYSYYLGAKVNPAFTTVEESFKTLFWSIFGLSEVTSVVLKYDHKFIENIGYVLYGIYNVTMVVVLLNMLIAMINSSYQEIEDDSDVEWKFARSKLWLSYFDDGKTLPPPFSLVPSPKSFVYFIMRITNFSKCRRRRLQKDLELGMGNSKSRLNLFTQSNSRVFESHSFNSILNQPTRYQQIMKRLIKRYVLKAQVDKENDEVNEGELKEIKQDISSLRYELLEDKSQATEELAILIHKLSEKLNPSALRCE
# Target: T1, endogenous Nox2 (neonatal rat cardiomyocytes) (rat (endogenous in NRCMs)) (UniProt Q9ERL1)
# T1 sequence: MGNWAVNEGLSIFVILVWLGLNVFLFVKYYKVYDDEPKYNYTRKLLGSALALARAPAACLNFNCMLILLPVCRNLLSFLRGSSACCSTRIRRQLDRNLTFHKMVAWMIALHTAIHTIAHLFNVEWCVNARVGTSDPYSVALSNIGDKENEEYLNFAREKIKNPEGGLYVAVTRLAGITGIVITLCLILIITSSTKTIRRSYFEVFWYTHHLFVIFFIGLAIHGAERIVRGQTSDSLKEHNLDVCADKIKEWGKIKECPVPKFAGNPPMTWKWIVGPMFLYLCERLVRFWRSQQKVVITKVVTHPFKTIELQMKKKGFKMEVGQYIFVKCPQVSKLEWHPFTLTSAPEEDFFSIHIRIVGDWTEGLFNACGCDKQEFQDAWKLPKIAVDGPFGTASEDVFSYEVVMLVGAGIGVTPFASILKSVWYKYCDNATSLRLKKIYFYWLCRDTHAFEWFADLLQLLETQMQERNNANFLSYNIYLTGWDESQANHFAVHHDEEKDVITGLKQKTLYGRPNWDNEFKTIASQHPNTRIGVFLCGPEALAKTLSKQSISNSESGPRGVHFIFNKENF
# Assay: proximity ligation; Duolink PLA Fluorescence in fixed NRCMs, with or without 1 mM ATP for 12 h; rabbit anti-TRPC3 and mouse anti-Nox2
binder,measurement,value
B1,binding,binds
